Results are given in words; binding and its absence hold for the method and conditions named. Some binding calls cover weakened binding; strength is not graded here.
Target: T1, Recombinant yeast TBP (yeast) (UniProt P13393)
T1 sequence (looked up): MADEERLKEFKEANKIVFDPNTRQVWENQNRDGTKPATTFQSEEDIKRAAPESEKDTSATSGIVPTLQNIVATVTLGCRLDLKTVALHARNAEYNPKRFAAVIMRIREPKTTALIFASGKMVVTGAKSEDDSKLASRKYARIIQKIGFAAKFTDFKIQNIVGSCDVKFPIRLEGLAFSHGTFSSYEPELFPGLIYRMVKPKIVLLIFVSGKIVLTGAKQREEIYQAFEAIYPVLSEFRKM
Assay: EMSA competition against labeled RNA aptamer AptTBP-101 on the TBP-TATA complex (25 nM TBP, 50 nM TATA-DNA, 200 nM recombinant protein)

- binding: binds
B1: Recombinant yeast TFIIA (protein)
chain 1: MSNAEASRVYEIIVESVVNEVREDFENAGIDEQTLQDLKNIWQKKLTETKVTTFSWDNQFNEGNINGVQNDLNFNLATPGVNSSEFNIKEENTGNEGLILPNINSNNNIPHSGETNINTNTVEATNNSGATLNTNTSGNTNADVTSQPKIEVKPEIELTINNANITTVENIDDESEKKDDEEKEEDVEKTRKEKEQIEQVKLQAKKEKRSALLDTDEVGSELDDSDDDYLISEGEEDGPDENLMLCLYDKVTRTKARWKCSLKDGVVTINRNDYTFQKAQVEAEWV
chain 2: MAVPGYYELYRRSTIGNSLVDALDTLISDGRIEASLAMRVLETFDKVVAETLKDNTQSKLTVKGNLDTYGFCDDVWTFIVKNCQVTVEDSHRDASQNGSGDSQSVISVDKLRIVACNSKKSE
